Values from PubChem BioAssay AID652259 (Drosophila RNAi Screening Center, 2013).
Test: 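Knock-downs that push a Wingless-driven reporter up or down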 (primary screen). System: Drosophila clone 8 imaginal disc epithelial cells. Reagents: long dsRNA against Drosophila genes. Challenge: pathway stimulated by co-transfected Wingless expression plasmid. Detection: 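Dual luciferase reads per well after Wingless plasmid stimulation: reporter firefly light and Renilla control light; activity is firefly divided by Renilla, a ratio not deposited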. Reading the numbers: firefly reporter light: higher = more Wg reporter light, before normalisation; Renilla control light: higher = more transfected or surviving cells. Call rule: 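Strong candidates differ from their plate mean by at least two out of four per-plate statistical tests; weak candidates meet just one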. Meaning of the calls: active = candidate regulator (raises or lowers reporter); inactive = not a candidate.
The deposit covers about 22,000 reagents; below is a random part of those with a known target gene and a result. Over the whole deposit, 233 (1.1%) got an active call. 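Light values are raw, unnormalised plate reads; the ratio scores behind the reporter calls were not deposited.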 The record does not give: the amount of reagent, the time to read-out, the dose of the treatment.

After knock-down of CG9313 [DRSC04540], the screen gave firefly reporter light, replicate 1 = 13036; Renilla control light, replicate 1 = 1809; inactive.
For CCHa1-R [DRSC06456], the values are firefly reporter light, replicate 1 = 6434; Renilla control light, replicate 1 = 2298; inactive.
Depletion of CCHa1-R [DRSC06715] gave: firefly reporter light, replicate 1 = 8588; Renilla control light, replicate 1 = 2420; inactive.
CG32280 [DRSC08024] scored firefly reporter light, replicate 1 = 2819; Renilla control light, replicate 1 = 1584; inactive.
For CG14147 [DRSC10149] the deposit lists firefly reporter light, replicate 1 = 4806; Renilla control light, replicate 1 = 2114; inactive.
With knock-down of ome [DRSC09322], the record shows firefly reporter light, replicate 1 = 2403; Renilla control light, replicate 1 = 1337; inactive.
ome [DRSC10282] scored firefly reporter light, replicate 1 = 5043; Renilla control light, replicate 1 = 2000; inactive.
ome [DRSC11380] showed firefly reporter light, replicate 1 = 5472; Renilla control light, replicate 1 = 2179; inactive.
With knock-down of CG31624 [DRSC02617], the screen gave firefly reporter light, replicate 1 = 17480; Renilla control light, replicate 1 = 3786; inactive.
With knock-down of CG4393 [DRSC15573], the screen gave firefly reporter light, replicate 1 = 19863; Renilla control light, replicate 1 = 16519; inactive.
Depletion of Adk3 [DRSC05917] resulted in: firefly reporter light, replicate 1 = 19096; Renilla control light, replicate 1 = 5451; inactive.
CG2017 [DRSC12293] showed firefly reporter light, replicate 1 = 6288; Renilla control light, replicate 1 = 2141; inactive.
